{
  "sequences": {"note": "Amino acid sequences for entries named in this document (tags omitted).", "UniProt Q63HN8": "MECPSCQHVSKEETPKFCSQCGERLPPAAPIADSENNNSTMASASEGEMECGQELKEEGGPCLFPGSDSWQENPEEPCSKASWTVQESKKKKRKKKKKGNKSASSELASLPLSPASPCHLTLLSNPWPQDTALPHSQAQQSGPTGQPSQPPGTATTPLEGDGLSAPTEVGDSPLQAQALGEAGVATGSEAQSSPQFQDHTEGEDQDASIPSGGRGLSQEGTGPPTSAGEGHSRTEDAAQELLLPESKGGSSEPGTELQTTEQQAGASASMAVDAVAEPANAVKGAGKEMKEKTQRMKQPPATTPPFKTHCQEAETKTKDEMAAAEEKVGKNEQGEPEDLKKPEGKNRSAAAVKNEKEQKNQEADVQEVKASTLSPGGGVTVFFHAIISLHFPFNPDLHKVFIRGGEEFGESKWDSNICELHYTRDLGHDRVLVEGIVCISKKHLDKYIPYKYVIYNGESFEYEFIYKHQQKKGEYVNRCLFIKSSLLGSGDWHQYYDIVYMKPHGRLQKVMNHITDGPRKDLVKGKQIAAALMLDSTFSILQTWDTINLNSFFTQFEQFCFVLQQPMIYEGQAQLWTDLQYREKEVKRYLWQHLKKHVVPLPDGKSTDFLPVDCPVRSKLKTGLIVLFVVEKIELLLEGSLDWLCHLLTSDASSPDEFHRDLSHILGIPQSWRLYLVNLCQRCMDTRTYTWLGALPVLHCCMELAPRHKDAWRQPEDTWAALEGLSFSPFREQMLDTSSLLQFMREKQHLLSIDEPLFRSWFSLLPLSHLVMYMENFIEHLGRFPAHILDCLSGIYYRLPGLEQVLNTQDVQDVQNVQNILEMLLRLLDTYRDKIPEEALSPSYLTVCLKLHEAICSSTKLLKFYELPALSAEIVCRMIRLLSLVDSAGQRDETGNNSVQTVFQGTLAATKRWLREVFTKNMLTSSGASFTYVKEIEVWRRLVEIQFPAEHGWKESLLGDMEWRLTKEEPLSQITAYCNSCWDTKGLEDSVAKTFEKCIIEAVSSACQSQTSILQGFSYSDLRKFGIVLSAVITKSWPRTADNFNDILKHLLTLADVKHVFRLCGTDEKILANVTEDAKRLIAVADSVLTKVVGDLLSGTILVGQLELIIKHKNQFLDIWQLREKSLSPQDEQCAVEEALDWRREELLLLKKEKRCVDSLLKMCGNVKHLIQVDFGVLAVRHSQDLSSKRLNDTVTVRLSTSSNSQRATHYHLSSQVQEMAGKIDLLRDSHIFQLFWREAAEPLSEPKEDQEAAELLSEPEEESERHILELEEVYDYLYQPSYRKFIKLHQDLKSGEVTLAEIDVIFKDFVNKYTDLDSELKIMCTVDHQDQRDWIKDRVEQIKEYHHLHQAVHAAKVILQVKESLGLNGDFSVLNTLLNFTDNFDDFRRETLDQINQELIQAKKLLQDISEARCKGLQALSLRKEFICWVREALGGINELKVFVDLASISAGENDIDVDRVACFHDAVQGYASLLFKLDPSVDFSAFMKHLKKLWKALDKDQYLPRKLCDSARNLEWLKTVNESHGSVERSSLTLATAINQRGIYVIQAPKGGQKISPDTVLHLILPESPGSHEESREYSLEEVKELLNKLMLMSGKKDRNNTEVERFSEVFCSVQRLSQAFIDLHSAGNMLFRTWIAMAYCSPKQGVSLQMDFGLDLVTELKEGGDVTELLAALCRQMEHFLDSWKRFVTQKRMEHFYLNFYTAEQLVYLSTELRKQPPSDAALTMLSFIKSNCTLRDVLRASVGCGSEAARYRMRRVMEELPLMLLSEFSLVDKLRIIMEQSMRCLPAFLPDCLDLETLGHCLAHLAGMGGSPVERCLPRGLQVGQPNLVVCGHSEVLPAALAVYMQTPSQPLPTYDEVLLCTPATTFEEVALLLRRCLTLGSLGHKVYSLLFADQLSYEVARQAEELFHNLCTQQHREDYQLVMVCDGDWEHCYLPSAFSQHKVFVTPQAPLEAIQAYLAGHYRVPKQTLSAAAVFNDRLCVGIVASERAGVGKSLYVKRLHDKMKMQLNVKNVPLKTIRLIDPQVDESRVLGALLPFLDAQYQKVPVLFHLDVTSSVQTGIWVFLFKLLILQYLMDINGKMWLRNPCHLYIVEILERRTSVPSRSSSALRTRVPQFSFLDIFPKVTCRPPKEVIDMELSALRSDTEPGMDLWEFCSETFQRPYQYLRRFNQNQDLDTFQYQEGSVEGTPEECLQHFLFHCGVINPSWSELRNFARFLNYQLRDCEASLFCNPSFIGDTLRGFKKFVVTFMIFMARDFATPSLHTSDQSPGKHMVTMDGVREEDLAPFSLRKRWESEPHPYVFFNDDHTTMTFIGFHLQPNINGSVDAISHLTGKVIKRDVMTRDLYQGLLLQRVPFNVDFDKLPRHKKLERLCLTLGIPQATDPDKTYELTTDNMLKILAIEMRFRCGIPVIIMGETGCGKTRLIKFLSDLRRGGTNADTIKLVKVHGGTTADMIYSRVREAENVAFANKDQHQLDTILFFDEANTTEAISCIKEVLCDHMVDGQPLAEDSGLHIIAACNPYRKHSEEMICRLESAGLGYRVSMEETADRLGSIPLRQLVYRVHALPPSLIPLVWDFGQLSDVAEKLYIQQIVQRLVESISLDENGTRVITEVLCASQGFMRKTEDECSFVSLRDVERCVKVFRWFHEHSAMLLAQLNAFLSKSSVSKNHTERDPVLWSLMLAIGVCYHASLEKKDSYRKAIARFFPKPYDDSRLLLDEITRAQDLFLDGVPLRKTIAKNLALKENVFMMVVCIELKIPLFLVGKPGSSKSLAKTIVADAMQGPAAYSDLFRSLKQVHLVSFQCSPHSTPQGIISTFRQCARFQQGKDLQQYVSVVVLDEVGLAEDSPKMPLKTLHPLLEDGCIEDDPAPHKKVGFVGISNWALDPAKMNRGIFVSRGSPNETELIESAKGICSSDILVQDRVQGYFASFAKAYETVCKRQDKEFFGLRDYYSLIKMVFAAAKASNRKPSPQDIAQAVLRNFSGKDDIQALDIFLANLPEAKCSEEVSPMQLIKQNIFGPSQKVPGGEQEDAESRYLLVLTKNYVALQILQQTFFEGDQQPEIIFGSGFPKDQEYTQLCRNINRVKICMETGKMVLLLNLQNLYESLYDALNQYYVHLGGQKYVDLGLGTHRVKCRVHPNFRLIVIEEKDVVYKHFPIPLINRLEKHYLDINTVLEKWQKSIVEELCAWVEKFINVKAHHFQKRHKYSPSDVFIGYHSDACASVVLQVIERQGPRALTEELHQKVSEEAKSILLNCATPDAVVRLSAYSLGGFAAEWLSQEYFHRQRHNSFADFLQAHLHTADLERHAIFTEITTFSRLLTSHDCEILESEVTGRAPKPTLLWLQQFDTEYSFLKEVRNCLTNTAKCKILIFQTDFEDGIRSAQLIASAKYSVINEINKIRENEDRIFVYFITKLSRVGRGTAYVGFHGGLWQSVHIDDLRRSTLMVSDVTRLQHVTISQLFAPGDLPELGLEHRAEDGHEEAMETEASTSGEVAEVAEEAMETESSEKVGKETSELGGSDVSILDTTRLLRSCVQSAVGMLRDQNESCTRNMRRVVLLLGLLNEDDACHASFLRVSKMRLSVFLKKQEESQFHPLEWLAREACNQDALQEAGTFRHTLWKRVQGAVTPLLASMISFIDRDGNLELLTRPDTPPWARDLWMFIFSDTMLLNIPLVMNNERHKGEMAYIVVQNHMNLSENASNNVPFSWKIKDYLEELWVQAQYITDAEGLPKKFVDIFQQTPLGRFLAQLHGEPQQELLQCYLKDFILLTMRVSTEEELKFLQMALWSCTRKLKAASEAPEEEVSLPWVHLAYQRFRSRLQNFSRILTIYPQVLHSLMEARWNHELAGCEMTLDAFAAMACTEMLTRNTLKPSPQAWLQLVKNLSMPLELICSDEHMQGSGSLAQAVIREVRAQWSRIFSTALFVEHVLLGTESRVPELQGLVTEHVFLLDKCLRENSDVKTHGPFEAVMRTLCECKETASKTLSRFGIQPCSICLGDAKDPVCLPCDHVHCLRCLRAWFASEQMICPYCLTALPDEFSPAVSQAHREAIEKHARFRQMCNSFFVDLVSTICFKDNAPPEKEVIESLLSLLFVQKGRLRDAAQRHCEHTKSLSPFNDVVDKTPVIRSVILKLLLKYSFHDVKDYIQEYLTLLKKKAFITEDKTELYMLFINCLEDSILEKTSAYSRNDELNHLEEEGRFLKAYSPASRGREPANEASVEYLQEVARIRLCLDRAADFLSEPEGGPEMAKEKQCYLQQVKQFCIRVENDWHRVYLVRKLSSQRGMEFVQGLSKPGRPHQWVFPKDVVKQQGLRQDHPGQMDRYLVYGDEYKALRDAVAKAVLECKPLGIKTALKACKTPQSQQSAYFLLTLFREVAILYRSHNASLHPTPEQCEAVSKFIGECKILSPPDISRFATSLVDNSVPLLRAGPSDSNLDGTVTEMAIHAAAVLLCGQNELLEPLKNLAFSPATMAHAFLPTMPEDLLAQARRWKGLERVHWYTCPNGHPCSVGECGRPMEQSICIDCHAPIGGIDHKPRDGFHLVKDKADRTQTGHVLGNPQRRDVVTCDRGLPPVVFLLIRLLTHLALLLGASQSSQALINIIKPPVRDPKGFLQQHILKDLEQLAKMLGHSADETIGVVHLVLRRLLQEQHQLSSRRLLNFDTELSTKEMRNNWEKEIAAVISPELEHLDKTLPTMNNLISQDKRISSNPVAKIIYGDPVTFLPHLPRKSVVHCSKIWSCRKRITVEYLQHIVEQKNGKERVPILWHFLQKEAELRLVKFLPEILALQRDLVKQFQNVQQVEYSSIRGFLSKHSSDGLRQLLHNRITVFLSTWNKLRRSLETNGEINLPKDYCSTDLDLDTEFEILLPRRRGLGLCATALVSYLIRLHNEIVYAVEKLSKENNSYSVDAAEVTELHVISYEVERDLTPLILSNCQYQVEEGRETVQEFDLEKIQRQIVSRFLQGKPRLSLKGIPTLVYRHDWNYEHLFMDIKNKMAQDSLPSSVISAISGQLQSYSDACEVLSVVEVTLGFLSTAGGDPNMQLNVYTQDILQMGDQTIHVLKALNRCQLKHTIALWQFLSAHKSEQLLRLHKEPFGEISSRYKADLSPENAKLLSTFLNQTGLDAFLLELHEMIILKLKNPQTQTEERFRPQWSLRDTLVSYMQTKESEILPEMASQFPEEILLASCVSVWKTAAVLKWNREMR", "UniProt P27694": "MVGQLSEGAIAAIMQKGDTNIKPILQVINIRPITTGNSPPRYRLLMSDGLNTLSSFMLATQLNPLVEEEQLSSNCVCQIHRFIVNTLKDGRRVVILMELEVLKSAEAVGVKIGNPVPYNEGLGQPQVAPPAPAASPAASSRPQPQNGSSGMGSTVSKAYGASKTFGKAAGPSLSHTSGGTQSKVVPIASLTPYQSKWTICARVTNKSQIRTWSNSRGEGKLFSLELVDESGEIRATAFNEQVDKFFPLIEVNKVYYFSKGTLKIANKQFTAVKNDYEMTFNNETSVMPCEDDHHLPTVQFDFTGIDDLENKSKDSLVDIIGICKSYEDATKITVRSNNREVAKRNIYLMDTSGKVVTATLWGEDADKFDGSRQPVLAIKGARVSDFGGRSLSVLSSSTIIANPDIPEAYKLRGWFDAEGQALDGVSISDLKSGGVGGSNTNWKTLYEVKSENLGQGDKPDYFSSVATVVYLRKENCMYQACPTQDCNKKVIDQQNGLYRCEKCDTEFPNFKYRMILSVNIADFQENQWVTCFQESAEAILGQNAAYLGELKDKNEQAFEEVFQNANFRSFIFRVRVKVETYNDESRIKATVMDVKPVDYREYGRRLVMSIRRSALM"},
  "source": "paper PMC12540995",
  "key": {"[1]": {"target": "RNF213 (human (endogenous in HEK293T)) (UniProt Q63HN8)", "test": "co-IP; HEK293T cell lysates immunoprecipitated with control IgG, anti-RNF213 or anti-RPA1 antibodies; immunoprecipitates blotted; endogenous proteins"}, "[2]": {"target": "Flag-RNF213 (UniProt Q63HN8)", "test": "co-IP; HEK293T cells transiently transfected with Flag-tagged constructs for 24 h; lysates incubated with anti-Flag agarose beads overnight at 4 °C; immunoprecipitates blotted"}, "[3]": {"target": "Replication protein A1 (RPA1) (human (endogenous in HEK293T)) (UniProt P27694)", "test": "co-IP; HEK293T cell lysates immunoprecipitated with control IgG, anti-RNF213 or anti-RPA1 antibodies; immunoprecipitates blotted; endogenous proteins"}, "[4]": {"target": "Flag-RPA1 (UniProt P27694)", "test": "co-IP; HEK293T cells transiently transfected with Flag-tagged constructs for 24 h; lysates incubated with anti-Flag agarose beads overnight at 4 °C; immunoprecipitates blotted"}},
  "note": "Results are given in words; binding and its absence hold for the method and conditions named. Binding seen in cells or lysates may run through a third protein. Some results given as binding are weak or reduced against the parent protein; the word gives no strength.",
  "data": [
    {"substance": "Replication protein A1 (RPA1) (from UniProt P27694 1-616)", "values": [
      {"measurement": "binding", "setting": "[1]", "result": "binds"},
      {"measurement": "binding", "setting": "[2]", "result": "binds"}
    ]},
    {"substance": "RNF213 (from UniProt Q63HN8 1-5207)", "values": [
      {"measurement": "binding", "setting": "[3]", "result": "binds"},
      {"measurement": "binding", "setting": "[4]", "result": "binds"}
    ]}
  ]
}
